No constants are given. Whether binding was seen depends on the method and setting. Binding seen in cells or lysates may run through a third protein. Some results given as binding are weak or reduced against the parent protein; the word gives no strength.
Target: GFP-tagged human ACE2 intracellular domain (ICD) (human) (UniProt Q9BYF1)
Test: co-IP; lysates of FBD-102b cells transfected with GFP-tagged ACE2 intracellular domain, immunoprecipitated with an anti-GFP antibody on protein G resin in the presence of 1 μM GTP or GDP, immunoblotted for the endogenous partner; lysis buffer 50 mM HEPES-NaOH pH 7.5, 150 mM NaCl, 20 mM MgCl2, 0.5% NP-40

Protein sequences, listed by entry. Tags and fused reporters are not part of them. Residues count along the entry.
UniProt Q9BYF1, residues 764-805: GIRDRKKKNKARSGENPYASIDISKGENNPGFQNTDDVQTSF
UniProt Q8BTI9: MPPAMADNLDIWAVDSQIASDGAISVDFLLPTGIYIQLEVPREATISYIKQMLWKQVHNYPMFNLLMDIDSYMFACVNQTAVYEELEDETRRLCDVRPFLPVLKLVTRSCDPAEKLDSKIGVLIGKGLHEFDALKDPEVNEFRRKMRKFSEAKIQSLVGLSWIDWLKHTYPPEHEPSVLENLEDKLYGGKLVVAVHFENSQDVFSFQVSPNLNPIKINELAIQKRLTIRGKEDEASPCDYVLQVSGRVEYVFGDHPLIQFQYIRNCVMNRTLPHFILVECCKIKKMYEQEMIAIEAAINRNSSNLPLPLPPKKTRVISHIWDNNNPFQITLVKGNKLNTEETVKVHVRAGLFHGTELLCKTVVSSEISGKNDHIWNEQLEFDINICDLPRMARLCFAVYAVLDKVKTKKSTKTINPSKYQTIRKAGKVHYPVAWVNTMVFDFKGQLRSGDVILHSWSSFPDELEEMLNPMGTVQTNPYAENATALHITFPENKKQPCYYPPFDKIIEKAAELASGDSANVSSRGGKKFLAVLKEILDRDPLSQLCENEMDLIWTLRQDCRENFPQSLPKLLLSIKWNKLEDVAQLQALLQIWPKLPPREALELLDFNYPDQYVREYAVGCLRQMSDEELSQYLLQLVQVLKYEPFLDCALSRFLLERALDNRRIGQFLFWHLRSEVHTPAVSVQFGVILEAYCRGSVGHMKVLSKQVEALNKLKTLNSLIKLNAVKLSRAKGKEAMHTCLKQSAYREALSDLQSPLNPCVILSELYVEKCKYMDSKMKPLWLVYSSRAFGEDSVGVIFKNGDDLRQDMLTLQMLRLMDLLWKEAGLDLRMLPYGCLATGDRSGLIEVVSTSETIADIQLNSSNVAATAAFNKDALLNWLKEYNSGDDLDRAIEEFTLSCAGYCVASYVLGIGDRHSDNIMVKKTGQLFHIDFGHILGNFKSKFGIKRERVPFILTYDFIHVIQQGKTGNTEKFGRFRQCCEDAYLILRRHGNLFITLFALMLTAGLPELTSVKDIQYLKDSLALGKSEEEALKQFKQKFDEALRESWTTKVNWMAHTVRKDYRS
UniProt P42337: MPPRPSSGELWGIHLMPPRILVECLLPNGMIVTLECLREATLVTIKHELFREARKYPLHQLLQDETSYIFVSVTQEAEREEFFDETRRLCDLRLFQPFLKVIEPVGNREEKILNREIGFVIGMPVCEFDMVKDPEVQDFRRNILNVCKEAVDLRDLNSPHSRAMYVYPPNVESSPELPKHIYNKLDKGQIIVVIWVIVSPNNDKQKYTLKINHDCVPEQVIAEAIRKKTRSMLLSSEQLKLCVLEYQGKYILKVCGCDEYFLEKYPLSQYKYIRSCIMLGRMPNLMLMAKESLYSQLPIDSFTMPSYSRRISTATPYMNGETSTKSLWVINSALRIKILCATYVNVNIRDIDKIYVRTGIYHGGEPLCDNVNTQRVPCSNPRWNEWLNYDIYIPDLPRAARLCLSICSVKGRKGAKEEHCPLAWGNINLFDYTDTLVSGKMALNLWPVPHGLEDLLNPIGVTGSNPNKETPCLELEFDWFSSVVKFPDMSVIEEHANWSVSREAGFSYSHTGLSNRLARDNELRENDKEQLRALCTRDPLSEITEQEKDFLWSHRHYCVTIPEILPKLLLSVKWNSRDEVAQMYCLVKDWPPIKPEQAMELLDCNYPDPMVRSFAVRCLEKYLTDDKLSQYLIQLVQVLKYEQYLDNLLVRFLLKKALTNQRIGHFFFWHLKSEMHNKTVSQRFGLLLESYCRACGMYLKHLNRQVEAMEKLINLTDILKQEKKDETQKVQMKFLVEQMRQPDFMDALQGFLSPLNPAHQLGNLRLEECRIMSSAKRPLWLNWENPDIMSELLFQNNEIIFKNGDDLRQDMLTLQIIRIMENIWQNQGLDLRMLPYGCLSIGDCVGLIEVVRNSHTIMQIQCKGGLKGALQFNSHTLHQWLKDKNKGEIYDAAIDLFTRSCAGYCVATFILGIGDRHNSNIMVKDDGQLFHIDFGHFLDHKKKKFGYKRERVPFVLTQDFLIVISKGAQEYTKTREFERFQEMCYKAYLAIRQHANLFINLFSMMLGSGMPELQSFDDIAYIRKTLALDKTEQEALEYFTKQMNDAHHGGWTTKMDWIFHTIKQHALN

Q: “Phosphoinositide 3-kinase β (PI 3-kinase p110β), endogenous in FBD-102b cells (from UniProt Q8BTI9 1-1064)” was tested. Which binding did it give?
A: binds

Q: How did the binding turn out when “Phosphoinositide 3-kinase α (PI 3-kinase p110α), endogenous in FBD-102b cells (from UniProt P42337 1-1068)” was run?
A: binds

— paper PMC9229887
